PubChem BioAssay AID1224828 – NIAID, 2016
Here is an unselected part of about 17,000 reagents tested. In the full data, 762 (4.5%) got an active call. 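Active calls include both raised and lowered p65 entry, mostly lowered; wells with fewer than 50 cells lack a z-score.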 Raw values are not corrected between plates. The numbers tell different reagents against one gene apart.

- Test: 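Knock-downs that increase or decrease LPS-induced p65 nuclear translocation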 (primary screen)
- System: mouse RAW264.7 G9 macrophage reporter cells (GFP-p65, Tnf promoter-mCherry)
- Reagent: siRNA pool against mouse genes, 100 nM
- Timing: 2 days siRNA transfection, then 40 min LPS before fixation
- Treatment: LPS (Salmonella minnesota R595) at 10 ng/ml
- Detection: 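Microscopy ratio of nuclear to perinuclear-ring GFP-p65 signal, scaled to the plate median; gene score is the average of two replicate robust z-scores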
- Reading the numbers: p65 translocation robust z-score: higher = more nuclear NF-kappaB p65 after LPS than the plate median; nuclear/cytoplasmic p65 ratio: higher = more nuclear NF-kappaB p65
- Hit rule: 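Called active when z exceeds 3.3 or falls under -1.56 (median of Tlr4 controls), giving activity score of at least 50; no calls for control wells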
- Meaning of the calls: active = hit (p65 shift raised or lowered); inactive = no clear change

| target gene | reagent no. | p65 translocation robust z-score | nuclear/cytoplasmic p65 ratio, rep 1 | nuclear/cytoplasmic p65 ratio, rep 2 | low cell count flag | Outcome |
| --- | --- | --- | --- | --- | --- | --- |
| Foxf1 (forkhead box F1) | 1 | 0.09 | 1.43 | 1.4 | enough cells to score | inactive |
| Crygb (crystallin, gamma B) | 1 | 0.65 | 1.55 | 1.48 | enough cells to score | inactive |
| Or4x13 (olfactory receptor family 4 subfamily X member 13) | 1 | 0.81 | 1.78 | 1.51 | enough cells to score | inactive |
| Or4x13 (olfactory receptor family 4 subfamily X member 13) | 2 | -1.48 | 1.43 | 1.23 | enough cells to score | inactive |
| Lcorl (ligand dependent nuclear receptor corepressor-like) | 1 | 2.04 | 2.13 | 1.89 | enough cells to score | inactive |
| Puf60 (poly-U binding splicing factor 60) | 1 | -0.04 | 1.4 | 1.95 | enough cells to score | inactive |
| Fzd10 (frizzled class receptor 10) | 1 | 1.37 | 1.7 | 1.78 | enough cells to score | inactive |
| Hpx (hemopexin) | 1 | -3.25 | 1.28 | 1.1 | enough cells to score | active |
| Trim31 (tripartite motif-containing 31) | 1 | -0.53 | 1.47 | 1.79 | enough cells to score | inactive |
| Cimap2 (ciliary microtubule associated protein 2) | 1 | -0.95 | 1.54 | 1.44 | enough cells to score | inactive |
| Map3k14 (mitogen-activated protein kinase kinase kinase 14) | 1 | -0.92 | 1.41 | 1.36 | enough cells to score | inactive |
| Sdr42e1 (short chain dehydrogenase/reductase family 42E, member 1) | 1 | – | 2.63 | 1.41 | fewer than 50 cells per well; well left out of scoring | inactive |
| Gpatch3 (G patch domain containing 3) | 1 | -0.48 | 1.54 | 1.44 | enough cells to score | inactive |
| Aplnr (apelin receptor) | 1 | -0.06 | 1.54 | 1.53 | enough cells to score | inactive |
| Sprr2f (small proline-rich protein 2F) | 1 | -0.16 | 1.44 | 1.18 | enough cells to score | inactive |
| Cst13 (cystatin 13) | 1 | 2.08 | 1.58 | 1.69 | enough cells to score | inactive |
| 4632433K11Rik (RIKEN cDNA 4632433K11 gene) | 1 | -1.53 | 1.08 | 1.1 | enough cells to score | inactive |
| Mcmdc2 (minichromosome maintenance domain containing 2) | 1 | 0.4 | 1.4 | 1.53 | enough cells to score | inactive |
| Ppp1cc (protein phosphatase 1 catalytic subunit gamma) | 1 | 0.27 | 1.47 | 1.5 | enough cells to score | inactive |
| Rad18 (RAD18 E3 ubiquitin protein ligase) | 1 | 2.15 | 1.82 | 1.82 | enough cells to score | inactive |
| 9330155M09Rik (RIKEN cDNA 9330155M09 gene) | 1 | 1.15 | 1.54 | 1.75 | enough cells to score | inactive |
| Ppp1r14bl (protein phosphatase 1, regulatory inhibitor subunit 14B like) | 1 | – | 1.14 | 1.51 | fewer than 50 cells per well; well left out of scoring | inactive |
| Ogdh (oxoglutarate (alpha-ketoglutarate) dehydrogenase (lipoamide)) | 1 | -0.53 | 1.42 | 1.31 | enough cells to score | inactive |
| Gpr155 (G protein-coupled receptor 155) | 1 | -0.03 | 1.47 | 1.61 | enough cells to score | inactive |
| Casp9 (caspase 9) | 1 | 0.91 | 1.67 | 1.82 | enough cells to score | inactive |
| Tpbpa (trophoblast specific protein alpha) | 1 | 0.46 | 1.38 | 1.28 | enough cells to score | inactive |
| Or4x6 (olfactory receptor family 4 subfamily X member 6) | 1 | 1.68 | 1.78 | 1.71 | enough cells to score | inactive |
| Caly (calcyon neuron-specific vesicular protein) | 1 | 0.2 | 1.65 | 1.27 | enough cells to score | inactive |
| Fjx1 (four jointed box 1) | 1 | 0.42 | 1.49 | 1.54 | enough cells to score | inactive |
| Klhdc7a (kelch domain containing 7A) | 1 | -0.33 | 1.47 | 1.55 | enough cells to score | inactive |
| Sde2 (SDE2 telomere maintenance homolog (S. pombe)) | 1 | -1.01 | 1.45 | 1.64 | enough cells to score | inactive |
| Prss3b (serine protease 3B) | 1 | -0.45 | 1.58 | 1.51 | enough cells to score | inactive |
| Crlf1 (cytokine receptor-like factor 1) | 1 | 0.71 | 1.69 | 1.36 | enough cells to score | inactive |
| Dtx2 (deltex 2, E3 ubiquitin ligase) | 1 | -1.2 | 1.32 | 1.22 | enough cells to score | inactive |
| Ptgr2 (prostaglandin reductase 2) | 1 | – | 1.37 | 1.41 | fewer than 50 cells per well; well left out of scoring | inactive |
| Ehd3 (EH-domain containing 3) | 1 | -1.09 | 1.28 | 1.26 | enough cells to score | inactive |
| 4930483J18Rik (RIKEN cDNA 4930483J18 gene) | 1 | – | 0 | 0 | fewer than 50 cells per well; well left out of scoring | inactive |
| Psma7 (proteasome subunit alpha 7) | 1 | – | 1.22 | 1.04 | fewer than 50 cells per well; well left out of scoring | inactive |
| Klhl2 (kelch-like 2, Mayven) | 1 | 0.32 | 1.59 | 1.46 | enough cells to score | inactive |
| Cacng1 (calcium channel, voltage-dependent, gamma subunit 1) | 1 | 0.74 | 1.7 | 1.91 | enough cells to score | inactive |

Records listed so far whose target name begins with O or o:
| target gene | reagent no. | p65 translocation robust z-score | nuclear/cytoplasmic p65 ratio, rep 1 | nuclear/cytoplasmic p65 ratio, rep 2 | low cell count flag | Outcome |
| --- | --- | --- | --- | --- | --- | --- |
| Or4x13 (olfactory receptor family 4 subfamily X member 13) | 1 | 0.81 | 1.78 | 1.51 | enough cells to score | inactive |
| Or4x13 (olfactory receptor family 4 subfamily X member 13) | 2 | -1.48 | 1.43 | 1.23 | enough cells to score | inactive |
| Ogdh (oxoglutarate (alpha-ketoglutarate) dehydrogenase (lipoamide)) | 1 | -0.53 | 1.42 | 1.31 | enough cells to score | inactive |
| Or4x6 (olfactory receptor family 4 subfamily X member 6) | 1 | 1.68 | 1.78 | 1.71 | enough cells to score | inactive |
